Source: PubChem BioAssay AID1259308 (NCATS, 2017)

Aim: 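Knock-downs that increase output of a recombinant reporter protein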 (primary screen)
System: human HEK293 embryonic kidney cells stably expressing firefly luciferase (HEK-CMV-Luc2-Hygro)
Knock-down reagent: single siRNA against human genes, 0.8 pmol siRNA per well
Time to read-out: 72 h
Read-out: 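Luciferase light (ONE-Glo) measured on one replicate plate set and viability (CellTiter-Glo) on the other, scaled to a negative control siRNA, with robust z-scores and luciferase per cell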
Scale: total luciferase, z-score: higher = more reporter protein produced
Hit rule: 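An siRNA counts as active if its total luciferase robust z-score exceeds 3; genes with two or more such siRNAs out of three were retested with fresh siRNAs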
Calls: active = raised luciferase; inactive = no rise
This is an unselected part of about 59,000 reagents tested. About 1,510 of them (2.6%) count as active. 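Calls use total luciferase alone and ignore viability, so some active siRNAs may act by altering cell number.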 Entries without a mark were called inactive. The numbers tell different reagents against one gene apart. Not all columns of the deposit are shown.

total luciferase, z-score, by gene knocked down and reagent
LDLR (GeneID 3949): #1 0.725; #2 -1.04; #3 1.58
SMC1B (GeneID 27127): #1 -1.07; #2 -0.227; #3 0.00184
ARHGEF28 (GeneID 64283): #1 -0.613; #2 -0.76; #3 0.479
WDR55 (GeneID 54853): #1 2.08; #2 -1.57; #3 0.162
GALNT8 (GeneID 26290): #1 1.5; #2 1.4; #3 -1.23

Entries above whose target name starts with S or s:
total luciferase, z-score, by gene knocked down and reagent
SMC1B (GeneID 27127): #1 -1.07; #2 -0.227; #3 0.00184

Next entries:
total luciferase, z-score, by gene knocked down and reagent
ZNF672 (GeneID 79894): #1 -0.151; #2 -0.945; #3 0.665
MARK1 (GeneID 4139): #1 -0.571; #2 1.78; #3 0.0672
AQP10 (GeneID 89872): #1 -0.236; #2 -1.79; #3 -0.233
